Source: patent publication US8361998B2, “Compounds and their use as IKACh blockers” (AstraZeneca AB, priority 2010, dated 2013)
The match of structure and compound is tentative.

Sequences of proteins named here, by UniProt entry; tags and fusion partners are left off.
UniProt P48544, whole entry: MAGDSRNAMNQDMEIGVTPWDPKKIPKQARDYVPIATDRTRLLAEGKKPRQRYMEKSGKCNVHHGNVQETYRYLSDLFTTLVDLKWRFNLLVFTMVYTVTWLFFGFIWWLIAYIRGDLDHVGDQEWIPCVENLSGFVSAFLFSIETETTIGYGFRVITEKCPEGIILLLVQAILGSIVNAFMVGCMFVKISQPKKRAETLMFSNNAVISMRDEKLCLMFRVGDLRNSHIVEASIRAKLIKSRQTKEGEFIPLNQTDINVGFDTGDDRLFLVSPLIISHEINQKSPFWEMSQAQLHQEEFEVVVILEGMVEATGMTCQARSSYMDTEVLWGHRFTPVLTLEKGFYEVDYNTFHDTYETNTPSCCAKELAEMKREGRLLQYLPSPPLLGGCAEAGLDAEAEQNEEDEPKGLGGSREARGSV
UniProt P48549, whole entry: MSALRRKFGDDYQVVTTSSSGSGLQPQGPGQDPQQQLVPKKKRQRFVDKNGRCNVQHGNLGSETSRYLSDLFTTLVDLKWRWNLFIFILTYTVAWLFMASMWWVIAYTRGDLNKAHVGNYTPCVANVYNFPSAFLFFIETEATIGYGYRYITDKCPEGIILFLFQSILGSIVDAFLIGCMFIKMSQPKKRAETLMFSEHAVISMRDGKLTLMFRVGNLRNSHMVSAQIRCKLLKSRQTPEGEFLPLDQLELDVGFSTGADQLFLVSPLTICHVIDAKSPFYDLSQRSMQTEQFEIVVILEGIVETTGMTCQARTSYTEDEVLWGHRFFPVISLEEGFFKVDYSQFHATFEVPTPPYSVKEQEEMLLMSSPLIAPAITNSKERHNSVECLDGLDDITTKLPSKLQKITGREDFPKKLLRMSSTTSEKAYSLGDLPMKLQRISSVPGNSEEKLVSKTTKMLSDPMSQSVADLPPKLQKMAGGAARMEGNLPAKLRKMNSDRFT

Molecular target: human cardiac ion channel proteins hKir3.1/Kir3.4 (Homo sapiens, UniProt P48544+P48549)
Experiment: Atomic Absorption Screening (AAS) Rb efflux assay of hKir3.1/Kir3.4 block, carbachol/high K+ stimulated, 10-pt or 7-pt CR
Conditions: read-out: IKACh IC50 10-pt CR, AAS, 10-pt CR (0.003 to 67 μmol/L), CHO-K1 cells expressing hKir3.1/Kir3.4, mean of >4 replicates
Source text: Human KCNJ3 encoding Kir3.1 (Genbank acc. No. NM_002239) was inserted between EcoRI and NotI in the pIRESneo3 vector (Clontech Laboratories, Inc. CA, USA). Human KCNJ5 encoding Kir3.4 (Genbank Acc. No. BC069482) was inserted between EcoR1 and Not1 in the pIRESpuro3 vector (Clontech Laboratories, Inc. CA, USA). A Kozak sequence (GCCACC) was introduced before the start codon ATG of both constructs. Chinese Hamster Ovary K1, CHO-FLP/IN, cells (Invitrogen Corporation, Paisley, UK) were transfected simultaneously using Lipofectamine 2000 reagent (Invitrogen Corporation, Paisley, UK). Geneticin 600 μg/mL (Invitrogen Corporation, Paisley, UK) and puromycin 3 μg/mL (BD Bioscience) were added to the cell culture medium 3 days after transfection. Two weeks after transfection, colonies had appeared and were manually picked and sorted to one cell per well in a 96-well plate. […]
The blocking effects of compounds on the human cardiac ion channel proteins hKir3.1/Kir3.4 were assessed in CHO-K1 cells stably expressing the channel proteins using Atomic Absorption Screening (AAS). […] After 10 min stimulation, […] of the supernatant was transferred to a new microplate, 45 μL washing buffer added to the supernatant and the level of Rb in the supernatant was then measured using an Aurora ICR 8000. […]

CCC[C@@H](CN1CC(O)C1C)N(C)C(=O)c1ccc(F)cc1 (single isomer, unassigned) [43.6, isomer 2]
IC50: 9 µM
